Test results as given in patent publication EP1033402A1.
No constants are given. Whether binding was seen depends on the method and setting. Some results given as binding are weak or reduced against the parent protein; the word gives no strength.

Protein sequences, listed by entry. Tags and fused reporters are not part of them. Lines headed by an entry give the natural chain unless they say otherwise; changes in a name come on top.
UniProt P11802: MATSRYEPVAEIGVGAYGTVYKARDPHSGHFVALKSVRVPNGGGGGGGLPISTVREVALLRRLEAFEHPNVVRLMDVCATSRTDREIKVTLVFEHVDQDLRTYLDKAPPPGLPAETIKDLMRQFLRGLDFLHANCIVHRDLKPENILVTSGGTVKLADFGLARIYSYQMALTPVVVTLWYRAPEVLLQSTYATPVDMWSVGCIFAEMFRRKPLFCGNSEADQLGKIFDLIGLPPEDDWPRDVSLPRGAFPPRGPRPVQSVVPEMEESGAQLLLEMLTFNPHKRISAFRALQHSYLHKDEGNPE
UniProt P24385: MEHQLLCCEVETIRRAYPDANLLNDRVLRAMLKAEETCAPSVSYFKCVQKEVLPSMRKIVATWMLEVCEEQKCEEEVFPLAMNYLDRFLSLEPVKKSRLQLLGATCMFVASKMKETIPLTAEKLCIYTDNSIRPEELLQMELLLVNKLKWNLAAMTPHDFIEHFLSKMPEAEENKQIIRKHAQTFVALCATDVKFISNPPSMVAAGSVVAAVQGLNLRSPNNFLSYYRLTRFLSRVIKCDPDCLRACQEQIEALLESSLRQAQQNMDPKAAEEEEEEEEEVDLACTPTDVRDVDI

Molecular target: CDK4 (UniProt P11802)
Test: lysate of C33A cells transfected with p16BP1 vector; immunoprecipitation with Cyclin D1 antibody, Western blot with CDK4 antibody (Santa Cruz H303)

binding: binds
Substance: Cyclin D1 (endogenous, C33A cells) (from UniProt P24385 1-295)
